From PubChem BioAssay AID256 (DTP/NCI, 2004) come the findings set out here.

Each structure is given as a SMILES string. The list does not hold the whole screen: its compounds were picked by chemical class. Other doses and runs of a compound may be missing. T/C gives the treated animals as a percentage of the vehicle group. Where survival is the endpoint, this PubChem deposit counts one and a half times the control or more as active, and values a quarter to a half above the control carry no call in these data; other NCI protocols may use other cut-offs. Schedules are NCI's codes, taken here to give the interval after Q, in days (D) or hours (H), and the number of doses after X. Some structures stand for samples that the source files as different forms (salt, stereo form or complex); doses refer to the form tested. Some entries show no survivor count and are marked so; the dose need not have been tolerated. Some schedule codes hold Z or #, which are not explained here. Some entries were tested several times; their values stand side by side, smallest first.

This assay relates to CD2F1 mice, L1210 leukemia ip, survival T/C. Put plainly: NCI In Vivo Anticancer Drug Screen. Data for tumor model L1210 Leukemia (intraperitoneal) in CD2F1 (CDF1) mice. The note with it: higher T/C = longer survival. Here is the method: The antitumor activity of compounds was measured in mice bearing transplantable tumors. Survival or tumor size were measured and the results are expressed as the measurement made in the treated group (T) divided by the measurement made in the vehicle treated control group (C). The tumor model used in this assay is L1210 Leukemia (intraperitoneal) in CD2F1 (CDF1) mice

Setting [1] is: T/C endpoint: mean survival time, dose: 1.0 mg/kg/injection, schedule: Q01DX009 (ip), vehicle: saline.

For `CCN(CC)P(=O)(Cl)OC` (stereo unspecified), the T/C runs as follows: (T/C endpoint: mean survival time, dose: 3.12 mg/kg/injection, schedule: Q01DX009 (ip), vehicle: DMSO) 100 % of control [survivor count not shown]; (T/C endpoint: mean survival time, dose: 6.25 mg/kg/injection, schedule: Q01DX009 (ip), vehicle: DMSO) 96 % of control [survivor count not shown]; (T/C endpoint: mean survival time, dose: 12.5 mg/kg/injection, schedule: Q01DX009 (ip), vehicle: DMSO) 93 % of control [survivor count not shown].
In the case of `CCC(C)NN(CCCl)CCCl` (stereo unspecified), the T/C runs as follows: (T/C endpoint: mean survival time, dose: 25.0 mg/kg/injection, schedule: Q04DX003 (ip), vehicle: saline) 101 % of control [survivor count not shown]; (T/C endpoint: mean survival time, dose: 50.0 mg/kg/injection, schedule: Q04DX003 (ip), vehicle: saline) 110 % of control [survivor count not shown]; (T/C endpoint: mean survival time, dose: 100.0 mg/kg/injection, schedule: Q04DX003 (ip), vehicle: saline) 135 % of control [survivor count not shown].
For `O=P(Cl)(Cl)N(CCF)CCCl`, the T/C is, setting by setting: (T/C endpoint: mean survival time, dose: 1.0 mg/kg/injection, schedule: Q01DX Z (ip), vehicle: saline) 94 % of control [survivor count not shown]; (T/C endpoint: mean survival time, dose: 3.0 mg/kg/injection, schedule: Q01DX Z (ip), vehicle: saline) 97 % of control [survivor count not shown]; (T/C endpoint: mean survival time, dose: 10.0 mg/kg/injection, schedule: Q01DX Z (ip), vehicle: saline) 123 % of control [survivor count not shown].
Take `ClCCN(CCCl)c1ccc(CN2CCCCC2)cc1`: the T/C reads like this: (T/C endpoint: mean survival time, dose: 6.25 mg/kg/injection, schedule: Q01DX009 (ip), vehicle: Klucel (hydroxypropylcellulose) (HPC)) 105 % of control [survivor count not shown]; (T/C endpoint: mean survival time, dose: 12.5 mg/kg/injection, schedule: Q01DX009 (ip), vehicle: Klucel (hydroxypropylcellulose) (HPC)) 114 % of control [survivor count not shown]; (T/C endpoint: mean survival time, dose: 25.0 mg/kg/injection, schedule: Q01DX009 (ip), vehicle: Klucel (hydroxypropylcellulose) (HPC)) 105 % of control [survivor count not shown].
As for `NP(=O)(OCCCC=O)N(CCCl)CCCl` (stereo unspecified), the T/C (T/C endpoint: mean survival time, dose: 31.3 mg/kg/injection, schedule: Q01DX001 (ip), vehicle: DMSO) is 97 % of control [survivor count not shown]; the T/C (T/C endpoint: mean survival time, dose: 62.5 mg/kg/injection, schedule: Q01DX001 (ip), vehicle: DMSO) is 97 % of control [survivor count not shown]; the T/C (T/C endpoint: mean survival time, dose: 125.0 mg/kg/injection, schedule: Q01DX001 (ip), vehicle: DMSO) is 95 % of control [survivor count not shown]; the T/C (T/C endpoint: mean survival time, dose: 250.0 mg/kg/injection, schedule: Q01DX001 (ip), vehicle: DMSO) is 104 % of control [survivor count not shown]; the T/C (T/C endpoint: mean survival time, dose: 500.0 mg/kg/injection, schedule: Q01DX001 (ip), vehicle: DMSO) was 113 % of control [survivor count not shown].
As for `ClCCN1CCN(CCCl)CC1`, the T/C by setting is: (T/C endpoint: mean survival time, dose: 0.12 mg/kg/injection, schedule: Q01DX009 (ip), vehicle: saline) 110 % of control [survivor count not shown]; (T/C endpoint: mean survival time, dose: 0.25 mg/kg/injection, schedule: Q01DX009 (ip), vehicle: saline) 125 % of control [survivor count not shown]; (T/C endpoint: mean survival time, dose: 0.5 mg/kg/injection, schedule: Q01DX009 (ip), vehicle: saline) 145 % of control [survivor count not shown]; (T/C endpoint: mean survival time, dose: 0.75 mg/kg/injection, schedule: Q04DX003 (ip), vehicle: saline) 110 % of control; under setting [1], 154 % of control [survivor count not shown]; (T/C endpoint: mean survival time, dose: 1.5 mg/kg/injection, schedule: Q04DX003 (ip), vehicle: saline) 200 % of control. The T/C is, setting by setting: (T/C endpoint: mean survival time, dose: 2.0 mg/kg/injection, schedule: Q01DX009 (ip), vehicle: saline) 97 % of control [survivor count not shown]; (T/C endpoint: mean survival time, dose: 3.0 mg/kg/injection, schedule: Q04DX003 (ip), vehicle: saline) 143 % of control; (T/C endpoint: mean survival time, dose: 6.0 mg/kg/injection, schedule: Q04DX003 (ip), vehicle: saline) 98 % of control; (T/C endpoint: mean survival time, dose: 6.0 micrograms/kg/injection, schedule: Q01DX009 (ip), vehicle: saline) 116 % of control [survivor count not shown]; (T/C endpoint: mean survival time, dose: 6.2 micrograms/kg/injection, schedule: Q01DX009 (ip), vehicle: saline) 97 % of control [survivor count not shown]; (T/C endpoint: mean survival time, dose: 12.0 micrograms/kg/injection, schedule: Q01DX009 (ip), vehicle: saline) 104 % of control [survivor count not shown]. In addition, the T/C is, setting by setting: (T/C endpoint: mean survival time, dose: 12.5 micrograms/kg/injection, schedule: Q01DX009 (ip), vehicle: saline) 107 % of control [survivor count not shown]; (T/C endpoint: mean survival time, dose: 25.0 micrograms/kg/injection, schedule: Q01DX009 (ip), vehicle: saline) 91 [survivor count not shown] and 104 % of control [survivor count not shown]; (T/C endpoint: mean survival time, dose: 50.0 micrograms/kg/injection, schedule: Q01DX009 (ip), vehicle: saline) 100 [survivor count not shown] and 102 % of control [survivor count not shown]; (T/C endpoint: mean survival time, dose: 100.0 micrograms/kg/injection, schedule: Q01DX009 (ip), vehicle: saline) 104 [survivor count not shown] and 110 % of control [survivor count not shown]; (T/C endpoint: mean survival time, dose: 125.0 micrograms/kg/injection, schedule: Q01DX009 (ip), vehicle: saline) 122 % of control [survivor count not shown]; (T/C endpoint: mean survival time, dose: 200.0 micrograms/kg/injection, schedule: Q01DX009 (ip), vehicle: saline) 109 [survivor count not shown] and 125 % of control [survivor count not shown]. Besides, the T/C (T/C endpoint: mean survival time, dose: 250.0 micrograms/kg/injection, schedule: Q01DX009 (ip), vehicle: saline) is 125 % of control [survivor count not shown]; the T/C (T/C endpoint: mean survival time, dose: 500.0 micrograms/kg/injection, schedule: Q01DX009 (ip), vehicle: saline) was 143 % of control [survivor count not shown]; the T/C (T/C endpoint: mean survival time, dose: 1000.0 micrograms/kg/injection, schedule: Q01DX009 (ip), vehicle: saline) is 159 % of control [survivor count not shown]; the T/C (T/C endpoint: mean survival time, dose: 2000.0 micrograms/kg/injection, schedule: Q01DX009 (ip), vehicle: saline) was 125 % of control [survivor count not shown]; the T/C (T/C endpoint: median survival time, dose: 0.25 mg/kg/injection, schedule: Q01DX009 (ip), vehicle: saline) is 123 % of control; the T/C (T/C endpoint: median survival time, dose: 0.5 mg/kg/injection, schedule: Q01DX009 (ip), vehicle: saline) is 142 % of control. Further, the T/C (T/C endpoint: median survival time, dose: 1.0 mg/kg/injection, schedule: Q01DX009 (ip), vehicle: saline) is 188 % of control.
Take `ClCCN1CCCCC1CCl` (stereo unspecified): the T/C (T/C endpoint: mean survival time, dose: 0.44 mg/kg/injection, schedule: Q01DX009 (ip), vehicle: saline) is 102 % of control [survivor count not shown]; the T/C (T/C endpoint: mean survival time, dose: 0.66 mg/kg/injection, schedule: Q01DX009 (ip), vehicle: saline) was 107 % of control [survivor count not shown]; the T/C under setting [1] was 107 % of control [survivor count not shown].
Consider `O=NN(CCCSCCCl)C(=O)NC1CCCCC1`, for which the T/C was 101 % of control (T/C endpoint: mean survival time, dose: 6.25 mg/kg/injection, schedule: Q01DX001 (ip), vehicle: distilled water + Tween-80); 104 % of control (T/C endpoint: mean survival time, dose: 12.5 mg/kg/injection, schedule: Q01DX001 (ip), vehicle: distilled water + Tween-80); 101 % of control (T/C endpoint: mean survival time, dose: 25.0 mg/kg/injection, schedule: Q01DX001 (ip), vehicle: distilled water + Tween-80); 101 % of control (T/C endpoint: mean survival time, dose: 50.0 mg/kg/injection, schedule: Q01DX001 (ip), vehicle: distilled water + Tween-80); 118 % of control (T/C endpoint: mean survival time, dose: 100.0 mg/kg/injection, schedule: Q01DX001 (ip), vehicle: distilled water + Tween-80); 119 % of control (T/C endpoint: mean survival time, dose: 200.0 mg/kg/injection, schedule: Q01DX001 (ip), vehicle: distilled water + Tween-80).
